No constants are given. Whether binding was seen depends on the method and setting. Binding seen in cells or lysates may run through a third protein. Some binding calls cover weakened binding; strength is not graded here.
Experiments:
[1] = biological target: MDM2 (UniProt Q00987); assay: co-IP; co‐IP with indicated antibodies (Figure 6B,C); cells not given; cell lysates with antibody overnight at 4 °C and Protein A/G agarose per the methods
[2] = biological target: CSN6 (co-IPs of Figure 6B,C) (UniProt Q7L5N1); assay: as above
[3] = biological target: T1, hydroxymethylglutaryl‐CoA synthase 1 (HMGCS1) (human (endogenous in Huh-7)) (UniProt Q01581); assay: co-IP; immunoprecipitates from Huh‐7 cells treated with MG132 for 6 h, immunoblot (Figure 5K)
T1 sequence: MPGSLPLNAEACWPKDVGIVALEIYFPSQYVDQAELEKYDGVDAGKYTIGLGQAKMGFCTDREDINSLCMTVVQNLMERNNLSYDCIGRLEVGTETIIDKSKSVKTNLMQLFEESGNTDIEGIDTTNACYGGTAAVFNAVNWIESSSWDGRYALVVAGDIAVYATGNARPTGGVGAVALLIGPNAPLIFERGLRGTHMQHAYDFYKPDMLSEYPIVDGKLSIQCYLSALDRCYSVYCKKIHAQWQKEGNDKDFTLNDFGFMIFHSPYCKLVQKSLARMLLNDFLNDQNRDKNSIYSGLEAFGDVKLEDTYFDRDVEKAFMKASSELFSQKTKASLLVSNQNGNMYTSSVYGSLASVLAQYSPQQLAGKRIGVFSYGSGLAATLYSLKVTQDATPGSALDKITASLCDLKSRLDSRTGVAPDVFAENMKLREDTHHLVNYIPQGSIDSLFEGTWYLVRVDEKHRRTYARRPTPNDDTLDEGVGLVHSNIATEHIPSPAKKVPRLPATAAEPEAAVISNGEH

Amino acid sequences for entries named in this document (tags omitted).
UniProt Q00987: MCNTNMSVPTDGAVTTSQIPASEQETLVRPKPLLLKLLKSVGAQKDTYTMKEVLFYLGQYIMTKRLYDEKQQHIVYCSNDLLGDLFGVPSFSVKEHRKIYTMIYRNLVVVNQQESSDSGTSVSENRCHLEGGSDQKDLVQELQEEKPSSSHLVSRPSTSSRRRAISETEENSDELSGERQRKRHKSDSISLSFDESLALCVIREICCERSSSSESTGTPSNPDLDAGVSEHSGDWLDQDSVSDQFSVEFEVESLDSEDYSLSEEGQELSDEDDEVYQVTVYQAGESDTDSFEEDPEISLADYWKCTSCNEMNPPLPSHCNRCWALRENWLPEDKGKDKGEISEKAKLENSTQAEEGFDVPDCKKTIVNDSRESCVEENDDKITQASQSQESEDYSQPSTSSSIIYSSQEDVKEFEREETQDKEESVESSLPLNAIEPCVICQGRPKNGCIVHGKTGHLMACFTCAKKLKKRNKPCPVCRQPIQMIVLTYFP
UniProt Q7L5N1: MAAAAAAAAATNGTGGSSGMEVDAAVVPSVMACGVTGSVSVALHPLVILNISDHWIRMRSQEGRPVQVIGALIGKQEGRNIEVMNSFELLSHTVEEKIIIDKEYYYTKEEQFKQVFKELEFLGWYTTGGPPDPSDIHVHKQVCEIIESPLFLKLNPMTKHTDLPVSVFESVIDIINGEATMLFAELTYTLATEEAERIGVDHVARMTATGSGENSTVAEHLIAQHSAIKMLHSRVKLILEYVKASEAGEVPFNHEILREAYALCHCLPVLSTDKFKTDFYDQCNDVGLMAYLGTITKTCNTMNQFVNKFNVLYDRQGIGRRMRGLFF
UniProt O43791: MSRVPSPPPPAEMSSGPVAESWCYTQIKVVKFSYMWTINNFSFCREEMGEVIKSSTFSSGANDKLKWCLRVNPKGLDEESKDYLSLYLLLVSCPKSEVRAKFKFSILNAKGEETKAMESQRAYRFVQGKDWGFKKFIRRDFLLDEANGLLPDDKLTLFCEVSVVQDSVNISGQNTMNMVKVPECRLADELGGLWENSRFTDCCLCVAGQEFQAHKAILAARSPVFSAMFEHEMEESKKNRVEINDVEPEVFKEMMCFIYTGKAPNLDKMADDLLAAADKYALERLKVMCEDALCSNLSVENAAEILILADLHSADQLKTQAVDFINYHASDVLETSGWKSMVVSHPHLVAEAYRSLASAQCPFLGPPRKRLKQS

| Substance | binding [1] | binding [2] | binding [3] |
| --- | --- | --- | --- |
| CSN6 (co-IPs of Figure 6B,C) (from UniProt Q7L5N1 1-327) | binds |  |  |
| SPOP (co-IPs of Figure 6B,C) (from UniProt O43791 1-374) | binds | binds |  |
| speckle‐type POZ protein (SPOP) (from UniProt O43791 1-374) |  |  | binds |
| CSN6 (from UniProt Q7L5N1 1-327) |  |  | binds |
| MDM2 (from UniProt Q00987 1-491) |  | binds |  |

Source: paper PMC11005689
